# Results published in the supplement of paper PMC8728848.
# The other results are listed elsewhere or left out.
# B1: Lb MiSSP8 (Laccaria bicolor) (protein)
# chain: MYFHTLFACATLMLITTAHASPTVINSLDSRKADLNGDVEARHAADWRRDSDWRRDSDWRRDSDWRRDSD
# Legend:
# Assay in all cases: glycan array binding signal (z-score within array); higher = stronger binding
# Conditions in all cases: glycan notation: IUPAC condensed, linker removed
# Glc(b1-6)Glc = target: Glc(b1-6)Glc
# Procedure, shortened: (§1)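 Glycan array data were curated from 3228 arrays in the Consortium for Functional Glycomics database and kept only where the protein sequence was available. Glycan names were converted to IUPAC-condensed notation, and columns mapping to the same glycan were averaged. The binding signal is a within-array Z-score, averaged across arrays of the same protein sequence at different concentrations or buffers and across linkers. Negative Z-scores can be read as non-binding.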
# GlcA(b1-3)Gal = target: GlcA(b1-3)Gal
# Procedure, shortened: as §1
# GlcA(b1-3)GlcNAc = target: GlcA(b1-3)GlcNAc
# Procedure, shortened: as §1
# GlcA(b1-6)Gal = target: GlcA(b1-6)Gal
# Procedure, shortened: as §1
# [1] = target: GlcA3S(b1-3)Gal(b1-4)GlcNAc(b1-2)Man
# Procedure, shortened: as §1
# [2] = target: GlcA3S(b1-3)Gal(b1-4)GlcNAc(b1-3)Gal(b1-4)Glc
# Procedure, shortened: as §1
# [3] = target: GlcNAc(a1-3)Gal(b1-4)GlcNAc
# Procedure, shortened: as §1
# [4] = target: GlcNAc(a1-4)Gal(b1-3)GlcNAc
# Procedure, shortened: as §1
# [5] = target: GlcNAc(a1-4)Gal(b1-4)GalNAc
# Procedure, shortened: as §1
# [6] = target: GlcNAc(a1-4)Gal(b1-4)GlcNAc
# Procedure, shortened: as §1
# [7] = target: GlcNAc(a1-4)Gal(b1-4)GlcNAc(b1-3)Gal(b1-4)Glc
# Procedure, shortened: as §1
# [8] = target: GlcNAc(a1-4)Gal(b1-4)GlcNAc(b1-3)Gal(b1-4)GlcNAc
# Procedure, shortened: as §1
# [9] = target: GlcNAc(a1-4)Gal(b1-4)GlcNAc(b1-3)Gal(b1-4)GlcNAc(b1-3)Gal(b1-4)GlcNAc
# Procedure, shortened: as §1
# [10] = target: GlcNAc(a1-4)Gal(b1-4)GlcNAc(b1-3)Gal(b1-4)[Fuc(a1-3)]GlcNAc(b1-3)Gal(b1-4)[Fuc(a1-3)]GlcNAc
# Procedure, shortened: as §1
# [11] = target: GlcNAc(a1-6)Gal(b1-4)GlcNAc
# Procedure, shortened: as §1
# [12] = target: GlcNAc(b1-2)Gal(b1-3)GalNAc
# Procedure, shortened: as §1
# [13] = target: GlcNAc(b1-2)Man(a1-3)[GlcNAc(b1-2)Man(a1-6)]Man(b1-4)GlcNAc(b1-4)GlcNAc
# Procedure, shortened: as §1
# [14] = target: GlcNAc(b1-2)Man(a1-3)[GlcNAc(b1-2)Man(a1-6)]Man(b1-4)GlcNAc(b1-4)[Fuc(a1-6)]GlcNAc
# Procedure, shortened: as §1
# [15] = target: GlcNAc(b1-2)Man(a1-3)[GlcNAc(b1-4)][GlcNAc(b1-2)Man(a1-6)]Man(b1-4)GlcNAc(b1-4)GlcNAc
# Procedure, shortened: as §1
# [16] = target: GlcNAc(b1-2)Man(a1-3)[GlcNAc(b1-4)][GlcNAc(b1-2)Man(a1-6)]Man(b1-4)GlcNAc(b1-4)[Fuc(a1-6)]GlcNAc
# Procedure, shortened: as §1
# [17] = target: GlcNAc(b1-2)[GlcNAc(b1-4)]Man(a1-3)[GlcNAc(b1-2)Man(a1-6)]Man(b1-4)GlcNAc(b1-4)GlcNAc
# Procedure, shortened: as §1
# [18] = target: GlcNAc(b1-2)[GlcNAc(b1-4)]Man(a1-3)[GlcNAc(b1-4)][GlcNAc(b1-2)Man(a1-6)]Man(b1-4)GlcNAc(b1-4)GlcNAc
# Procedure, shortened: as §1
# [19] = target: GlcNAc(b1-2)[GlcNAc(b1-4)]Man(a1-3)[GlcNAc(b1-4)][GlcNAc(b1-2)[GlcNAc(b1-6)]Man(a1-6)]Man(b1-4)GlcNAc(b1-4)GlcNAc
# Procedure, shortened: as §1
# [20] = target: GlcNAc(b1-2)[GlcNAc(b1-4)]Man(a1-3)[GlcNAc(b1-4)][GlcNAc(b1-2)[GlcNAc(b1-6)]Man(a1-6)]Man(b1-4)GlcNAc(b1-4)[Fuc(a1-6)]GlcNAc
# Procedure, shortened: as §1
# [21] = target: GlcNAc(b1-2)[GlcNAc(b1-6)]Man(a1-6)[GlcNAc(b1-2)Man(a1-3)]Man(b1-4)GlcNAc(b1-4)GlcNAc
# Procedure, shortened: as §1
# [22] = target: GlcNAc(b1-2)[GlcNAc(b1-6)]Man(a1-6)[GlcNAc(b1-2)Man(a1-3)]Man(b1-4)GlcNAc(b1-4)[Fuc(a1-6)]GlcNAc
# Procedure, shortened: as §1
# [23] = target: GlcNAc(b1-2)[GlcNAc(b1-6)]Man(a1-6)[GlcNAc(b1-4)][GlcNAc(b1-2)Man(a1-3)]Man(b1-4)GlcNAc(b1-4)GlcNAc
# Procedure, shortened: as §1
# GlcNAc(b1-3)Fuc = target: GlcNAc(b1-3)Fuc
# Procedure, shortened: as §1
# GlcNAc(b1-3)Gal = target: GlcNAc(b1-3)Gal
# Procedure, shortened: as §1
# [24] = target: GlcNAc(b1-3)Gal(b1-3)GalNAc
# Procedure, shortened: as §1
# GlcNAc(b1-3)Gal(b1-4)Glc = target: GlcNAc(b1-3)Gal(b1-4)Glc
# Procedure, shortened: as §1
# [25] = target: GlcNAc(b1-3)Gal(b1-4)GlcNAc
# Procedure, shortened: as §1
# [26] = target: GlcNAc(b1-3)Gal(b1-4)GlcNAc(b1-2)Man(a1-3)[GlcNAc(b1-3)Gal(b1-4)GlcNAc(b1-2)Man(a1-6)]Man(b1-4)GlcNAc(b1-4)GlcNAc
# Procedure, shortened: as §1
# [27] = target: GlcNAc(b1-3)Gal(b1-4)GlcNAc(b1-2)Man(a1-3)[GlcNAc(b1-3)Gal(b1-4)GlcNAc(b1-2)Man(a1-6)]Man(b1-4)GlcNAc(b1-4)[Fuc(a1-6)]GlcNAc
# Procedure, shortened: as §1
# [28] = target: GlcNAc(b1-3)Gal(b1-4)GlcNAc(b1-2)[GlcNAc(b1-3)Gal(b1-4)GlcNAc(b1-6)]Man(a1-6)[GlcNAc(b1-3)Gal(b1-4)GlcNAc(b1-2)Man(a1-3)]Man(b1-4)GlcNAc(b1-4)GlcNAc
# Procedure, shortened: as §1
# [29] = target: GlcNAc(b1-3)Gal(b1-4)GlcNAc(b1-3)Gal(b1-4)GlcNAc
# Procedure, shortened: as §1
# [30] = target: GlcNAc(b1-3)Gal(b1-4)GlcNAc(b1-3)Gal(b1-4)GlcNAc(b1-2)Man(a1-3)[GlcNAc(b1-3)Gal(b1-4)GlcNAc(b1-3)Gal(b1-4)GlcNAc(b1-2)Man(a1-6)]Man(b1-4)GlcNAc(b1-4)GlcNAc
# Procedure, shortened: as §1
# [31] = target: GlcNAc(b1-3)Gal(b1-4)GlcNAc(b1-3)Gal(b1-4)GlcNAc(b1-2)Man(a1-3)[GlcNAc(b1-3)Gal(b1-4)GlcNAc(b1-3)Gal(b1-4)GlcNAc(b1-2)Man(a1-6)]Man(b1-4)GlcNAc(b1-4)[Fuc(a1-6)]GlcNAc
# Procedure, shortened: as §1
# [32] = target: GlcNAc(b1-3)Gal(b1-4)GlcNAc(b1-3)Gal(b1-4)GlcNAc(b1-2)[GlcNAc(b1-3)Gal(b1-4)GlcNAc(b1-3)Gal(b1-4)GlcNAc(b1-6)]Man(a1-6)[GlcNAc(b1-3)Gal(b1-4)GlcNAc(b1-3)Gal(b1-4)GlcNAc(b1-2)Man(a1-3)]Man(b1-4)GlcNAc(b1-4)[Fuc(a1-6)]GlcNAc
# Procedure, shortened: as §1
# [33] = target: GlcNAc(b1-3)Gal(b1-4)GlcNAc(b1-3)Gal(b1-4)GlcNAc(b1-3)Gal(b1-4)GlcNAc(b1-2)Man(a1-3)[GlcNAc(b1-3)Gal(b1-4)GlcNAc(b1-3)Gal(b1-4)GlcNAc(b1-3)Gal(b1-4)GlcNAc(b1-2)Man(a1-6)]Man(b1-4)GlcNAc(b1-4)GlcNAc
# Procedure, shortened: as §1
# [34] = target: GlcNAc(b1-3)Gal(b1-4)GlcNAc(b1-3)Gal(b1-4)GlcNAc(b1-3)Gal(b1-4)GlcNAc(b1-2)Man(a1-3)[GlcNAc(b1-3)Gal(b1-4)GlcNAc(b1-3)Gal(b1-4)GlcNAc(b1-3)Gal(b1-4)GlcNAc(b1-2)Man(a1-6)]Man(b1-4)GlcNAc(b1-4)[Fuc(a1-6)]GlcNAc
# Procedure, shortened: as §1
# [35] = target: GlcNAc(b1-3)Gal(b1-4)GlcNAc(b1-3)Gal(b1-4)GlcNAc(b1-3)Gal(b1-4)GlcNAc(b1-2)[GlcNAc(b1-3)Gal(b1-4)GlcNAc(b1-3)Gal(b1-4)GlcNAc(b1-3)Gal(b1-4)GlcNAc(b1-6)]Man(a1-6)[GlcNAc(b1-3)Gal(b1-4)GlcNAc(b1-3)Gal(b1-4)GlcNAc(b1-3)Gal(b1-4)GlcNAc(b1-2)Man(a1-3)]Man(b1-4)GlcNAc(b1-4)[Fuc(a1-6)]GlcNAc
# Procedure, shortened: as §1
# [36] = target: GlcNAc(b1-3)Gal(b1-4)GlcNAc(b1-3)Gal(b1-4)GlcNAc(b1-3)Gal(b1-4)GlcNAc(b1-3)Gal(b1-4)GlcNAc(b1-2)Man(a1-3)[GlcNAc(b1-3)Gal(b1-4)GlcNAc(b1-3)Gal(b1-4)GlcNAc(b1-3)Gal(b1-4)GlcNAc(b1-3)Gal(b1-4)GlcNAc(b1-2)Man(a1-6)]Man(b1-4)GlcNAc(b1-4)GlcNAc
# Procedure, shortened: as §1
# [37] = target: GlcNAc(b1-3)Gal(b1-4)GlcNAc(b1-3)Gal(b1-4)GlcNAc(b1-3)Gal(b1-4)GlcNAc(b1-3)Gal(b1-4)GlcNAc(b1-2)Man(a1-3)[GlcNAc(b1-3)Gal(b1-4)GlcNAc(b1-3)Gal(b1-4)GlcNAc(b1-3)Gal(b1-4)GlcNAc(b1-3)Gal(b1-4)GlcNAc(b1-2)Man(a1-6)]Man(b1-4)GlcNAc(b1-4)[Fuc(a1-6)]GlcNAc
# Procedure, shortened: as §1
# [38] = target: GlcNAc(b1-3)Gal(b1-4)GlcNAc(b1-3)Gal(b1-4)GlcNAc(b1-3)Gal(b1-4)GlcNAc(b1-3)Gal(b1-4)GlcNAc(b1-2)[GlcNAc(b1-3)Gal(b1-4)GlcNAc(b1-3)Gal(b1-4)GlcNAc(b1-3)Gal(b1-4)GlcNAc(b1-3)Gal(b1-4)GlcNAc(b1-6)]Man(a1-6)[GlcNAc(b1-3)Gal(b1-4)GlcNAc(b1-3)Gal(b1-4)GlcNAc(b1-3)Gal(b1-4)GlcNAc(b1-3)Gal(b1-4)GlcNAc(b1-2)Man(a1-3)]Man(b1-4)GlcNAc(b1-4)[Fuc(a1-6)]GlcNAc
# Procedure, shortened: as §1
binder,measurement,setting,value
B1,glycan array binding signal (z-score),Glc(b1-6)Glc,0.526
same,glycan array binding signal (z-score),GlcA(b1-3)Gal,-0.854
same,glycan array binding signal (z-score),GlcA(b1-3)GlcNAc,3.78
same,glycan array binding signal (z-score),GlcA(b1-6)Gal,-0.751
same,glycan array binding signal (z-score),[1],-0.688
same,glycan array binding signal (z-score),[2],-0.861
same,glycan array binding signal (z-score),[3],-0.205
same,glycan array binding signal (z-score),[4],-0.613
same,glycan array binding signal (z-score),[5],-0.474
same,glycan array binding signal (z-score),[6],-0.102
same,glycan array binding signal (z-score),[7],-0.488
same,glycan array binding signal (z-score),[8],-0.688
same,glycan array binding signal (z-score),[9],-0.827
same,glycan array binding signal (z-score),[10],0.375
same,glycan array binding signal (z-score),[11],-0.116
same,glycan array binding signal (z-score),[12],1.43
same,glycan array binding signal (z-score),[13],-0.557
same,glycan array binding signal (z-score),[14],-0.088
same,glycan array binding signal (z-score),[15],-0.219
same,glycan array binding signal (z-score),[16],-0.723
same,glycan array binding signal (z-score),[17],-0.682
same,glycan array binding signal (z-score),[18],-0.64
same,glycan array binding signal (z-score),[19],-0.744
same,glycan array binding signal (z-score),[20],-0.468
same,glycan array binding signal (z-score),[21],-0.405
same,glycan array binding signal (z-score),[22],0.161
same,glycan array binding signal (z-score),[23],-0.626
same,glycan array binding signal (z-score),GlcNAc(b1-3)Fuc,0.395
same,glycan array binding signal (z-score),GlcNAc(b1-3)Gal,-0.868
same,glycan array binding signal (z-score),[24],-0.229
same,glycan array binding signal (z-score),GlcNAc(b1-3)Gal(b1-4)Glc,-0.136
same,glycan array binding signal (z-score),[25],-1.03
same,glycan array binding signal (z-score),[26],0.257
same,glycan array binding signal (z-score),[27],2.31
same,glycan array binding signal (z-score),[28],0.54
same,glycan array binding signal (z-score),[29],-0.827
same,glycan array binding signal (z-score),[30],2.57
same,glycan array binding signal (z-score),[31],2.43
same,glycan array binding signal (z-score),[32],1.4
same,glycan array binding signal (z-score),[33],2.07
same,glycan array binding signal (z-score),[34],2.57
same,glycan array binding signal (z-score),[35],1.56
same,glycan array binding signal (z-score),[36],0.25
same,glycan array binding signal (z-score),[37],0.409
same,glycan array binding signal (z-score),[38],0.119

# A section taken from the entries so far:
binder,measurement,setting,value
B1,glycan array binding signal (z-score),GlcA(b1-6)Gal,-0.751
same,glycan array binding signal (z-score),[1],-0.688
